# Source: PubChem BioAssay AID1259405 (NCATS, 2018)
# Aim: 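Mouse-designed siRNAs used to find CHO productivity engineering targets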 (primary screen)
# System: Chinese hamster CHO-K1 ovary cells with stable secreted eGFP expression
# Knock-down reagent: single siRNA against mouse genes, 0.8 pmol siRNA per well (2 µl of 400 nM stock)
# Time to read-out: 3 days
# Measurement: 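Per-well intracellular GFP measured by laser scanning cytometry, plus viability from ATP luminescence, each relative to plate median of non-targeting control wells, in %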
# Scale: GFP, % of control: higher = more GFP per well, higher productivity; viability (ATP), % of control: higher = more viable cells (more ATP)
# Call rule: 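Called active when intracellular GFP, relative to negative control, is at or above 120%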
# Here is an unselected part of about 50,000 deposited reagents. About 4,000 of all reagents (8%) were called active. 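Mouse siRNA library applied to hamster cells; one well for each siRNA.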 Entries without a mark were called inactive. Reagents against one gene are numbered here.
target,siRNA no.,"GFP, % of control","viability (ATP), % of control"
Or7e169,1,73.9,40.7
Or7e169,2,122 (active),66.5
Or7e169,3,76.7,111
Supt4a,1,106,111
Supt4a,2,127 (active),100
Rexo2,1,71.5,73.6
Rexo2,2,67.3,59.2
Rexo2,3,71.4,53.1
Mlf1,1,80.8,78.6
Mlf1,2,112,80.4
Mlf1,3,123 (active),122
Nek5,1,166 (active),115
Nek5,2,41.6,48.3
Nek5,3,101,80.8
Pabpn1,1,119,99.7
Pabpn1,2,81.5,60.5
Pdcl3,1,56.1,66.4
Pdcl3,2,77.5,65.6
Pdcl3,3,88.2,71.2
Slc25a3,1,124 (active),84.4
Slc25a3,2,90.1,85.4
Slc25a3,3,43.6,66.2
Mgst3,1,119,81.6
Mgst3,2,36,44.7
Mgst3,3,99.5,103
Tpbpa,1,93.1,49.4
Tpbpa,2,73.7,93.5
Tpbpa,3,196 (active),138
9130019P16Rik,1,65.9,77.8
9130019P16Rik,2,61,51.8
9130019P16Rik,3,41,55.8
Wfdc13,1,71.7,48.6
Wfdc13,2,146 (active),66
Wfdc13,3,95.2,92.4
Hhatl,1,85.1,84.5
Hhatl,2,111,94.7
Hhatl,3,71.8,69.2
Gapvd1,1,123 (active),86.4
Gapvd1,2,58.3,66.2
Gapvd1,3,49.5,66
Ncam1,1,45,62.1
Ncam1,2,44.3,76.4
Ncam1,3,105,109
Mrpl36,1,78.1,74.2
Mrpl36,2,53,22.7
Mrpl36,3,71.4,77.1
Arid3a,1,66.7,79.5
Arid3a,2,111,91.8
Mbtd1,1,43.3,58.1
Mbtd1,2,64.7,84.9
Mbtd1,3,83.1,81.4
Itm2c,1,50.6,63.4
Itm2c,2,84.7,71.7
Itm2c,3,51.9,43.7
Shkbp1,1,21.5,19.3
Shkbp1,2,80.2,82.9
Shkbp1,3,64.4,72.2
Cr1l,1,82.6,44.9
Cr1l,2,76.1,70.9
Cr1l,3,75.2,90.8
Capg,1,84.1,54.1
Capg,2,78.5,68.6
Capg,3,28.3,78.2
Lmna,1,37.8,36.9
Lmna,2,80.2,81.1
Lmna,3,49.3,57
Pcmtd2,1,79.5,81.9
Pcmtd2,2,60.9,42.1
Pcmtd2,3,34.4,30.8
Spin4,1,63.4,59.2
Spin4,2,78,115
Spin4,3,70.5,41.6
Zfp410,1,66.4,66.6
Zfp410,2,90.5,71.5
Zfp410,3,70.2,23.1
Or51a25,1,90.2,91.8
Or51a25,2,96.9,72.5
Or51a25,3,61.5,94.2
Ttll1,1,103,67.8
Ttll1,2,61.6,81.9
Ttll1,3,65.5,54.8
Fbxo25,1,60.2,59.6
Fbxo25,2,115,79.9
Fbxo25,3,135 (active),82.8

Ordered by “viability (ATP), % of control” (high to low): some entries from above
target,siRNA no.,"GFP, % of control","viability (ATP), % of control"
Tpbpa,3,196 (active),138
Mgst3,3,99.5,103
Tpbpa,2,73.7,93.5
9130019P16Rik,1,65.9,77.8
Tpbpa,1,93.1,49.4
